Assay results from the supplement of paper PMC5949888.
Most values lie at the floor of the assay. Slopes are relative: functional sequences can read slightly below zero.

Test system: Saccharomyces cerevisiae PS128 hsf1 delta, HSF1(1-493) fusion
Test: growth estimate (transactivation domain function in HSF1 fusion, heat-shock survival) (a.u. (slope of normalised read count over time)); higher = stronger growth at 37°C, i.e. more transactivation activity
Details: library: random library

Substance | growth estimate
EFGEVMVESVLLSSCVDSRT | < -0.25
ICWGMICGFHAPTILSRNGH | < -0.25
DRQDISSRPSLSCI | < -0.25
SWCLS | < -0.25
QLGQLAYPSQSGDEMLLTTP | < -0.25
LSSLGSARYIAILTCPNIPL | < -0.25
GIGVV | < -0.25
SRLTLNMTASSGAVEVLTSH | < -0.25
GNGIRERATTRLVRECQKDI | < -0.25
PVKTVSNMSFTWEQRKAHSI | < -0.25
LRVQLQKISAGVLTYYRNLL | < -0.25
ELSQNSIRGL | < -0.25
ECRGLKSHVVSVYVRVTWIS | < -0.25
CFRT | < -0.25
GQYTTSARNEHA | < -0.25
RMVLLPSNLSGWGESQFIWS | < -0.25
HHFASS | < -0.25
MPSFDDDKIEAICEFD | < -0.25
SCNLSECWDDLDPNPILSGG | < -0.25
TWR | < -0.25
HSGSQYRMFYKDARISILCP | < -0.25
GETISAGVACAQMYCYPRGP | < -0.25
PGVPATRLRHSPVPLSRGVR | < -0.25
QSGPVGILS | < -0.25
TLMYRL | < -0.25
PSKGKPLPLGSGVVSRTGRV | < -0.25

Substance | growth estimate
RCCPLEGTRPWDR | < -0.25
ICLRFINRCSLEK | < -0.25
CGSSRETTSITFESERLPTI | < -0.25
LLSPTGRDST | < -0.25
LTCPATEVTGRSY | < -0.25
STIFAMPSDLFSASRDLGST | < -0.25
RKHRAVVKGLRRPLGSALRH | < -0.25
ARYELGSVGEPDSELIATDR | < -0.25
YVSLLLTYSGWRYVIFTEFV | < -0.25
RNGAAFCRKRGTTFGGPTVQ | -0.192
ARFICLRADDARSGRPLLMA | < -0.25
LSAQVKCRKRGLLYGSQRYQ | -0.231
AMA | < -0.25
RVRKRVRCMGRGCAYLRFAS | < -0.25
LGAS | < -0.25
QPSI | < -0.25
IIMCFPQARNTHLVDLRGIG | -0.246
QARLQN | < -0.25
KCIIAG | < -0.25
AGRSAVTTPQYIPVMSARGP | < -0.253
IASACMDPRILMEFRSMDTV | < -0.25
VQARIIREEARCGLVLVHPP | < -0.25
DDGMRKN | < -0.25
GLISTRVVQGHIGYLRFLVV | -0.246
GLLWLEGVLLNVNIAIKNDI | < -0.25
GLVRAR | < -0.25

Substance | growth estimate
CSGLYVSYKKVISASFLLTR | < -0.25
DEWSYWVEFPPRGARISVGG | < -0.25
FRASAPSLLATQAELVATWT | < -0.25
EVTTTL | < -0.25
CSRLSSSINMLT | < -0.25
RAFYIPIRDLRF | < -0.25
EFRS | < -0.25
TPQGQWLTSGF | < -0.25
SGLTQTSNRF | -0.248
GVKMT | -0.246
GHK | < -0.25
VGHTD | < -0.25
HVRLHLVFMKGSTSFIPNQL | < -0.25
SQQGVVGLDH | < -0.25
WIHGRLTYEMSILGMKTTES | < -0.25
LPACCVQYTGGLY | < -0.25
QDGCVLSGIGYDGPLSHILH | < -0.25
DLTYGNNSLPKVEYVPCR | < -0.25
FSIVDRAVSTSCA | < -0.25
CRLDRGAPRTSLILPCVAPS | < -0.25
SMTGNSDRMVAVRPPNNGDG | < -0.25
VFISL | < -0.25
LWQQFRSSGDDSLS | -0.229
GKGTTVFRTRLGKMVEWPVS | < -0.25
KNHRHKVPQRS | 0.0413
TRAQNRGAAILTRGSWLEKA | < -0.25

Substance | growth estimate
LPTGSNASTTFASFGAWSAF | < -0.25
KNREGKWAIAE | < -0.25
IWITNRSRSY | < -0.25
EPIRHAGSYIAAPTGVMGGP | < -0.25
PRVLRTGSFPRAARKKANFG | < -0.25
IHWSKGSAILGPGLRKGQRK | < -0.25
SEKRRSGFVA | < -0.25
LRIQTNS | < -0.25
YSSRAQESPRFTARTLGGIY | < -0.25
PSSD | < -0.25
TSAGFGPWSDLWRRQRVRFE | < -0.25
DSINVRIRHAGRGRGTRSER | < -0.25
KAVAFRFLF | < -0.25
SVRLDIAVVLGHMFCLKGNH | < -0.25
LGIRT | < -0.25
CGSQISLCQLAIV | < -0.25
NKRVCAAFDRWGAVCFLS | < -0.25
RCDI | < -0.25
VHKGRHFVHLMTYESVDWV | < -0.25
TPHGHGYGCGIWIPYVSGWA | -0.237
SGTCPLWLNPADPIGGTGAM | -0.174
HIYGCRF | < -0.25
LRIERVQGGDVRVRERYDHT | < -0.25

Taken from above:
Under growth estimate, VQARIIREEARCGLVLVHPP is listed with < -0.25
Under growth estimate, LRVQLQKISAGVLTYYRNLL is listed with < -0.25
Under growth estimate, PGVPATRLRHSPVPLSRGVR is listed with < -0.25
